Laboratory results reported in US4194009A, “Aryloxyphenylpropylamines for obtaining a psychotropic effect” (Eli Lilly and Company, priority 1976, dated 1980).
At least one compound was matched to its structure with a doubt left.

Experiments:
Assay type in all cases: in vivo
[1] = tested on: monkeys; assay: multiple fixed-ratio fixed-interval schedule in monkeys; conditions: 2.5 or 5 mg./kg.
[2] = tested on: pigeons; assay: adjusting ratio schedule in pigeons
[3] = tested on: mice; assay: reserpine hypothermia reversal test; conditions: in words
Procedure: (§1) The apomorphine hypothermia antagonism test is carried out as follows: mice are injected with a dose of apomorphine known to reduce body temperature approximately 4° C. The compound under test is injected 1/2 hour before the injection of the apomorphine and the temperatures measured 1/2 hour after injection. The degree of antagonism is expressed as a percent reduction (as compared with controls) of the temperature decrease produced by the injection of the apomorphine. The reserpine hypothermia reversal test is carried out as follows: groups of mice are injected with reserpine and 16.5 hours later are injected intraperitoneally with graded doses of the drug, a different dose level being given to each group of mice. Temperatures are measured at 1 hour after injection of the drug under test and again the effectiveness of the drug is expressed as a percentage decrease in the hypothermia induced by the injection of reserpine as compared with the control group. In the tables which follow, Table 4 gives the results in the apomorphine antagonism and reserpine reversal hypothermia tests for the secondary amines of this invention. […]

[4] = tested on: pigeons; assay: operant behavior, fixed-ratio, fixed interval schedule in pigeons
[5] = tested on: squirrel monkeys; assay: Sidman avoidance in squirrel monkeys; conditions: 5 mg./kg.
[6] = tested on: mice; assay: apomorphine hypothermia antagonism test; conditions: in words
Procedure: as §1

CNCCC(Oc1ccccc1OC)c1ccccc1 (stereo not shown) [o-anisyl, N-methyl 3-(o-methoxyphenoxy)-3-phenylpropylamine]
responses on multiple fixed-ratio fixed-interval schedule [1]: responses were reduced | dose level relative to that required by DMI for a similar increase in responses per reinforcement [2]: one-fourth | ratio of responses to reinforcements [2]: significant percent increase in the ratio of responses to reinforcements | reversal of reserpine hypothermia [3]: extremely effective in reversing the effects of reserpine hypothermia | response rates [4]: increased response rates | response in Sidman avoidance [5]: response of the monkeys increased | antagonism of apomorphine hypothermia [6]: activity of the same order of magnitude as the aforementioned marketed antidepressant drugs
